Results as given in article PMC9294231, “gC1qR/C1qBP/HABP-1: Structural Analysis of the Trimeric Core Region, Interactions With a Novel Panel of Monoclonal Antibodies, and Their Influence on Binding to FXII” (Frontiers in Immunology, 2022).
No constants are given. Whether binding was seen depends on the method and setting. Some binding calls cover weakened binding; strength is not graded here.

Sequences of proteins named here, by UniProt entry; tags and fusion partners are left off. Residues count along the entry.
UniProt Q07021, residues 74-282: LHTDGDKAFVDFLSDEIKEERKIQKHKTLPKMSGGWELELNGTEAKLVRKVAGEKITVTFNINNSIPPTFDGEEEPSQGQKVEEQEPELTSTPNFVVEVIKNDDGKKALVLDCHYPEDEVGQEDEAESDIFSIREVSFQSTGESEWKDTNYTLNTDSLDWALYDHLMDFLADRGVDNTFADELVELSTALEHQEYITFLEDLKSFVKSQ

Molecular target: gC1qR-avi, enzymatically biotinylated (human) (UniProt Q07021)
Test: SPR; competition: biotinylated gC1qR-avi captured to ~100 RU or ~1000 RU on an SA chip, one flow cell presaturated with 100 nM anti-gC1qR mAb, control flow cells not; FXII, FXIIa or FXII-FNII injected; 25°C, HBS-T with 50 µM ZnCl2; both purified

B1: type-II fibronectin domain of human Factor XII/XIIa (FXII-FNII) (domain or fragment, UniProt P00748 20-90)
chain: IPPWEAPKEHKYKAEEHTVVLTVTGEPCHFPFQYHRQLYHKCTHKGRPGPQPWCATTPNFDQDQRWGYCLE
  binding: binds
